Data taken from patent US10563263B2, “Genetic polymorphisms associated with statin response and cardiovascular diseases, methods of detection and uses thereof” (CELERA CORPORATION, priority 2010, dated 2020).
The source gives many values for each of these; only a part stands here.

System: revascularization, unstable angina requiring hospitalization, MI, all causes of death, or stroke
Test: PROVE IT-TIMI 22: SNP by treatment interaction (high-dose atorvastatin vs standard-dose pravastatin), logistic regression (synergy index), primary composite endpoint
Format: in vivo, human

SMILES: CC(C)c1c(C(=O)Nc2ccccc2)c(-c2ccccc2)c(-c2ccc(F)cc2)n1CC[C@@H](O)C[C@@H](O)CC(=O)O [Atorvastatin, atorvastatin]
- OR (rs3847825 allele G, ADD, Imputed, atorvastatin vs pravastatin): 0.7616
- OR (rs3852001 allele C, REC, Genotyped, atorvastatin vs pravastatin): 1.348
- OR (rs3852002 allele G, REC, Imputed, atorvastatin vs pravastatin): 1.348
- OR (rs3852003 allele A, REC, Imputed, atorvastatin vs pravastatin): 1.351
- OR (rs3942254 allele T, DOM, Imputed, atorvastatin vs pravastatin): 0.6591
- OR (rs3945085 allele A, DOM, Imputed, atorvastatin vs pravastatin): 1.324
- OR (rs4029119 allele G, ADD, Imputed, atorvastatin vs pravastatin): 0.9741
- OR (rs4029119 allele G, DOM, Imputed, atorvastatin vs pravastatin): 1.136
- OR (rs4146972 allele T, DOM, Genotyped, atorvastatin vs pravastatin): 1.832
- OR (rs4259369 allele C, REC, Imputed, atorvastatin vs pravastatin): 0.659
- OR (rs4273613 allele T, ADD, Imputed, atorvastatin vs pravastatin): 0.9741
- OR (rs4273613 allele T, DOM, Imputed, atorvastatin vs pravastatin): 1.136
- OR (rs4294022 allele C, DOM, Imputed, atorvastatin vs pravastatin): 1.051
- OR (rs4310554 allele C, DOM, Genotyped, atorvastatin vs pravastatin): 1.561
- OR (rs4315598 allele T, ADD, Imputed, atorvastatin vs pravastatin): 1.389
- OR (rs4370878 allele G, DOM, Imputed, atorvastatin vs pravastatin): 1.312
- OR (rs4436200 allele C, ADD, Imputed, atorvastatin vs pravastatin): 0.543
- OR (rs4444612 allele G, ADD, Imputed, atorvastatin vs pravastatin): 1.389
- OR (rs4463950 allele C, DOM, Imputed, atorvastatin vs pravastatin): 0.7997
- OR (rs4509702 allele C, DOM, Imputed, atorvastatin vs pravastatin): 1.312
- OR (rs4533379 allele G, ADD, Imputed, atorvastatin vs pravastatin): 1.075
- OR (rs4569984 allele A, DOM, Imputed, atorvastatin vs pravastatin): 1.031
- OR (rs4570530 allele C, DOM, Imputed, atorvastatin vs pravastatin): 1.312
- OR (rs4571583 allele T, DOM, Imputed, atorvastatin vs pravastatin): 1.001
- OR (rs4615971 allele C, DOM, Imputed, atorvastatin vs pravastatin): 1.347
- OR (rs4629229 allele G, DOM, Imputed, atorvastatin vs pravastatin): 1.138
- OR (rs4641552 allele A, ADD, Imputed, atorvastatin vs pravastatin): 0.6214
- OR (rs4682527 allele C, DOM, Imputed, atorvastatin vs pravastatin): 2.955
- OR (rs4688632 allele G, REC, Imputed, atorvastatin vs pravastatin): 0.6822
- OR (rs4702720 allele A, ADD, Imputed, atorvastatin vs pravastatin): 0.757
- OR (rs4702720 allele A, DOM, Imputed, atorvastatin vs pravastatin): 0.6462
- OR (rs4714484 allele A, ADD, Imputed, atorvastatin vs pravastatin): 0.8396
- OR (rs4714484 allele A, DOM, Imputed, atorvastatin vs pravastatin): 0.8278
- OR (rs4725142 allele G, REC, Genotyped, atorvastatin vs pravastatin): 1.186
- OR (rs4725144 allele G, REC, Imputed, atorvastatin vs pravastatin): 1.136
- OR (rs4760785 allele A, ADD, Imputed, atorvastatin vs pravastatin): 0.7137
- OR (rs4760785 allele A, DOM, Imputed, atorvastatin vs pravastatin): 0.7026
- OR (rs4760894 allele T, ADD, Imputed, atorvastatin vs pravastatin): 0.7137
- OR (rs4760894 allele T, DOM, Imputed, atorvastatin vs pravastatin): 0.7026
- OR (rs4760895 allele A, ADD, Imputed, atorvastatin vs pravastatin): 0.7137
- OR (rs4760895 allele A, DOM, Imputed, atorvastatin vs pravastatin): 0.7026
- OR (rs4767184 allele C, ADD, Imputed, atorvastatin vs pravastatin): 0.7759
- OR (rs4773487 allele T, ADD, Imputed, atorvastatin vs pravastatin): 1.73
- OR (rs4780547 allele G, REC, Imputed, atorvastatin vs pravastatin): 0.2881
- OR (rs4836502 allele T, DOM, Imputed, atorvastatin vs pravastatin): 0.5934
- OR (rs4836507 allele C, DOM, Imputed, atorvastatin vs pravastatin): 0.5803
- OR (rs4851531 allele T, DOM, Imputed, atorvastatin vs pravastatin): 0.6071
- OR (rs4879931 allele G, ADD, Imputed, atorvastatin vs pravastatin): 0.7451
- OR (rs4976276 allele T, ADD, Imputed, atorvastatin vs pravastatin): 0.9836
- OR (rs4977681 allele C, REC, Imputed, atorvastatin vs pravastatin): 0.9851
- OR (rs4986197 allele G, ADD, Imputed, atorvastatin vs pravastatin): 1.083
- OR (rs4986220 allele T, ADD, Imputed, atorvastatin vs pravastatin): 1.075
- OR (rs5756669 allele C, DOM, Imputed, atorvastatin vs pravastatin): 1.061
- OR (rs6033138 allele C, ADD, Imputed, atorvastatin vs pravastatin): 1.389
- OR (rs6040619 allele C, ADD, Imputed, atorvastatin vs pravastatin): 1.429
- OR (rs6040625 allele T, ADD, Imputed, atorvastatin vs pravastatin): 1.414
- OR (rs6040630 allele A, ADD, Imputed, atorvastatin vs pravastatin): 1.401
- OR (rs6040633 allele A, ADD, Imputed, atorvastatin vs pravastatin): 1.391
- OR (rs6040634 allele T, ADD, Imputed, atorvastatin vs pravastatin): 1.404
- OR (rs6040638 allele C model ADD Imputed, ATORVA vs PRAVA): 1.389
- OR (rs6040644 allele A model ADD Imputed, ATORVA vs PRAVA): 1.389
- OR (rs6040667 allele T model ADD Imputed, ATORVA vs PRAVA): 1.422
- OR (rs6040668 allele C model ADD Imputed, ATORVA vs PRAVA): 1.398
- OR (rs6053005 allele C model DOM Imputed, ATORVA vs PRAVA): 0.4506
- OR (rs6054405 allele A model REC Imputed, ATORVA vs PRAVA): 0.9755
- OR (rs6075186 allele G model DOM Imputed, ATORVA vs PRAVA): 1.138
- OR (rs6111540 allele A model ADD Imputed, ATORVA vs PRAVA): 0.9692
- OR (rs6131206 allele C model ADD Imputed, ATORVA vs PRAVA): 1.493
- OR (rs6131208 allele T model ADD Imputed, ATORVA vs PRAVA): 1.387
- OR (rs6131919 allele G model DOM Imputed, ATORVA vs PRAVA): 1.138
- OR (rs6134243 allele C model ADD Imputed, ATORVA vs PRAVA): 1.389
- OR (rs6136020 allele A model DOM Imputed, ATORVA vs PRAVA): 1.061
- OR (rs6464377 allele C model DOM Imputed, ATORVA vs PRAVA): 1.043
- OR (rs6476565 allele A model DOM Imputed, ATORVA vs PRAVA): 1.184
- OR (rs6511286 allele T model ADD Imputed, ATORVA vs PRAVA): 1.099
- OR (rs6541829 allele C model REC Genotyped, ATORVA vs PRAVA): 2.003
- OR (rs6544728 allele T model DOM Imputed, ATORVA vs PRAVA): 1.333
- OR (rs6565910 allele G model DOM Imputed, ATORVA vs PRAVA): 1.047
- OR (rs6581985 allele G model REC Imputed, ATORVA vs PRAVA): 2.451
- OR (rs6685186 allele T model ADD Imputed, ATORVA vs PRAVA): 1.015
- OR (rs6722640 allele T model DOM Imputed, ATORVA vs PRAVA): 0.5987
- OR (rs6746170 allele A model DOM Imputed, ATORVA vs PRAVA): 1.346
- OR (rs6805139 allele G model DOM Imputed, ATORVA vs PRAVA): 1.417
- OR (rs6808571 allele G model ADD Imputed, ATORVA vs PRAVA): 1.138
- OR (rs6816479 allele A model REC Imputed, ATORVA vs PRAVA): 0.7905
- OR (rs6865976 allele C model DOM Imputed, ATORVA vs PRAVA): 1.085
- OR (rs6871041 allele G model DOM Imputed, ATORVA vs PRAVA): 0.6503
- OR (rs6908481 allele C model REC Imputed, ATORVA vs PRAVA): 1.391
- OR (rs6917224 allele A model ADD Imputed, ATORVA vs PRAVA): 0.959
- OR (rs6920677 allele G model DOM Imputed, ATORVA vs PRAVA): 0.9579
- OR (rs6998772 allele T model DOM Imputed, ATORVA vs PRAVA): 1.182
- OR (rs7022281 allele C model ADD Imputed, ATORVA vs PRAVA): 0.6915
- OR (rs7022281 allele C model REC Imputed, ATORVA vs PRAVA): 0.386
- OR (rs7043983 allele T model DOM Imputed, ATORVA vs PRAVA): 1.147
- OR (rs7077799 allele A model DOM Imputed, ATORVA vs PRAVA): 1.347
- OR (rs7088947 allele A model ADD Imputed, ATORVA vs PRAVA): 0.5704
- OR (rs7089661 allele C model DOM Imputed, ATORVA vs PRAVA): 1.347
- OR (rs7102072 allele A model DOM Imputed, ATORVA vs PRAVA): 0.9567
- OR (rs7129817 allele T model ADD Imputed, ATORVA vs PRAVA): 0.9401
- OR (rs7134262 allele T model REC Imputed, ATORVA vs PRAVA): 1.986
- OR (rs7138300 allele C model ADD Imputed, ATORVA vs PRAVA): 0.7137
- OR (rs7138300 allele C model DOM Imputed, ATORVA vs PRAVA): 0.7026
- OR (rs7295817 allele C model ADD Imputed, ATORVA vs PRAVA): 0.727
- OR (rs7295817 allele C model REC Imputed, ATORVA vs PRAVA): 0.4929
- OR (rs7297372 allele A model ADD Imputed, ATORVA vs PRAVA): 0.7305
- OR (rs7298255 allele A model ADD Imputed, ATORVA vs PRAVA): 0.7433
- OR (rs7298255 allele A model DOM Imputed, ATORVA vs PRAVA): 0.74
- OR (rs7305832 allele C model REC Imputed, ATORVA vs PRAVA): 2.008
- OR (rs7446891 allele G model DOM Imputed, ATORVA vs PRAVA): 0.5934
- OR (rs7448641 allele C model ADD Imputed, ATORVA vs PRAVA): 0.9741
- OR (rs7448641 allele C model DOM Imputed, ATORVA vs PRAVA): 1.136
- OR (rs7460605 allele G model DOM Imputed, ATORVA vs PRAVA): 1.481
- OR (rs7501186 allele A model DOM Imputed, ATORVA vs PRAVA): 2.011
- OR (rs7557560 allele T model REC Imputed, ATORVA vs PRAVA): 1.621
- OR (rs7562462 allele T model DOM Imputed, ATORVA vs PRAVA): 0.6891
- OR (rs7607447 allele T model REC Imputed, ATORVA vs PRAVA): 2.337
- OR (rs7648163 allele C model REC Imputed, ATORVA vs PRAVA): 0.941
- OR (rs7653190 allele C model ADD Imputed, ATORVA vs PRAVA): 0.9859
- OR (rs7653685 allele C model DOM Genotyped, ATORVA vs PRAVA): 0.8286
- OR (rs7684899 allele C model DOM Imputed, ATORVA vs PRAVA): 0.5176
- OR (rs7701604 allele G model ADD Imputed, ATORVA vs PRAVA): 0.9741
- OR (rs7701604 allele G model DOM Imputed, ATORVA vs PRAVA): 1.136
- OR (rs7703676 allele C model ADD Imputed, ATORVA vs PRAVA): 0.9741
- OR (rs7703676 allele C model DOM Imputed, ATORVA vs PRAVA): 1.136
- OR (rs7711358 allele A model DOM Imputed, ATORVA vs PRAVA): 0.593
- OR (rs7737608 allele G model DOM Imputed, ATORVA vs PRAVA): 0.7496
- OR (rs7762993 allele A model ADD Imputed, ATORVA vs PRAVA): 1.066
